Source: the supplement of paper PMC10849652
This is one part of the list.

The chains behind the UniProt entries cited, without tags or fusion partners. Where a name states a change or a piece, a line headed by the entry shows the natural chain unless it says otherwise.
UniProt Q96BY7: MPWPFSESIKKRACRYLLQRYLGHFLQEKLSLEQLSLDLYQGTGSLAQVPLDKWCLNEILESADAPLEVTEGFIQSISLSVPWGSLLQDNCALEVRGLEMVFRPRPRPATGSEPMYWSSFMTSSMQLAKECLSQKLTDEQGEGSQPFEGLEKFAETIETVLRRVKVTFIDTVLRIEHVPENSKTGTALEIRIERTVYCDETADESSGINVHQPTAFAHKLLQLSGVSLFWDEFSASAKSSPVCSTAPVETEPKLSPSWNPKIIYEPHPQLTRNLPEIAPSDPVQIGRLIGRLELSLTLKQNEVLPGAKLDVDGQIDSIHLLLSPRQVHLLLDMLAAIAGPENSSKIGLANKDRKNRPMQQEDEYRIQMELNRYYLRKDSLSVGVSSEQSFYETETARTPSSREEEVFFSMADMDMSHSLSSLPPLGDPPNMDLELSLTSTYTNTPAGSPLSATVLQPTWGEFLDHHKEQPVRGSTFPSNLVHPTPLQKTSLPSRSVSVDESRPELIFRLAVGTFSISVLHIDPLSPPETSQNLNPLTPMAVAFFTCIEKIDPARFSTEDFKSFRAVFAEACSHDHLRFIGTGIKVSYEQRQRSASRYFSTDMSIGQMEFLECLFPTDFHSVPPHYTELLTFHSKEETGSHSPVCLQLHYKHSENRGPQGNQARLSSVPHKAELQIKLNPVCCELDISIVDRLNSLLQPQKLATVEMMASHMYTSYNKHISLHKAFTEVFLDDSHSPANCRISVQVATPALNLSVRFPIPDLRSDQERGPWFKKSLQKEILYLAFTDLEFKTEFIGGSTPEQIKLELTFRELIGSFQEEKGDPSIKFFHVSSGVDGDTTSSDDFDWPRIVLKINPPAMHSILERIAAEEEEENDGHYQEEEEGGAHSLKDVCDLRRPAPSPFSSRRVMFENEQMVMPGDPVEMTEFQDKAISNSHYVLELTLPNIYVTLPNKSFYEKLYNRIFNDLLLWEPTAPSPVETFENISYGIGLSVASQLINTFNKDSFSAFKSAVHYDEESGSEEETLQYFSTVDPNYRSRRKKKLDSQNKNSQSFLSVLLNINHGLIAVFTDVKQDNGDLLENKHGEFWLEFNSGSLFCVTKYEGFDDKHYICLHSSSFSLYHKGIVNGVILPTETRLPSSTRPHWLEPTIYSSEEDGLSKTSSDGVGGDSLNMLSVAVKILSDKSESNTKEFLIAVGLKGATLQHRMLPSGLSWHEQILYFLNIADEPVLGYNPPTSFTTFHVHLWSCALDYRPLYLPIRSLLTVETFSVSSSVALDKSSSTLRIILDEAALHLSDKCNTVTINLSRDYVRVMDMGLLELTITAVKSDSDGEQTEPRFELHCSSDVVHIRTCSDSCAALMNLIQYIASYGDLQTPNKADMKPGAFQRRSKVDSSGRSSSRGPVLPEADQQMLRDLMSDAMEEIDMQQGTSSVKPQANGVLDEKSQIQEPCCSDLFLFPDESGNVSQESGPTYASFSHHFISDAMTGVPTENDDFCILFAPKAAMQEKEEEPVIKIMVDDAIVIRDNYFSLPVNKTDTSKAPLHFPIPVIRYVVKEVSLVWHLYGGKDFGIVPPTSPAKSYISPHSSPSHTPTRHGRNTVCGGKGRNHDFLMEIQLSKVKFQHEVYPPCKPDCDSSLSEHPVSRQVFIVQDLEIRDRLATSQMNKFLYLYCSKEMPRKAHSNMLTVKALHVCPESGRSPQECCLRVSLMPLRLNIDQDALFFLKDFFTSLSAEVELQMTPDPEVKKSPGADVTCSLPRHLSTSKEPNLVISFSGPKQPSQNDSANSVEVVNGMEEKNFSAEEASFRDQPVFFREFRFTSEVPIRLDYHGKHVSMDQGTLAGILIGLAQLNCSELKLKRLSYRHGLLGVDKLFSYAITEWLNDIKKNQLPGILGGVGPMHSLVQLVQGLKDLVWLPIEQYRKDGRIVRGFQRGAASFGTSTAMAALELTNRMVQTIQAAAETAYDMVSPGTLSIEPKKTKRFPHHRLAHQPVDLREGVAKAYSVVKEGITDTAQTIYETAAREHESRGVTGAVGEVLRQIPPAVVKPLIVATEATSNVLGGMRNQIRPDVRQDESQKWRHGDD
UniProt Q9BSB4: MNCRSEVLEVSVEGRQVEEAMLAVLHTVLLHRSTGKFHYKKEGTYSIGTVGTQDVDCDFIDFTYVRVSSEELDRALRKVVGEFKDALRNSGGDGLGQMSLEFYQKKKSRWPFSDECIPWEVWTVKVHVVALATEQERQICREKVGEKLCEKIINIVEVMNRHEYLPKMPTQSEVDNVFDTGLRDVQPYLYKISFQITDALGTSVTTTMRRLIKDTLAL
UniProt Q8WYN0: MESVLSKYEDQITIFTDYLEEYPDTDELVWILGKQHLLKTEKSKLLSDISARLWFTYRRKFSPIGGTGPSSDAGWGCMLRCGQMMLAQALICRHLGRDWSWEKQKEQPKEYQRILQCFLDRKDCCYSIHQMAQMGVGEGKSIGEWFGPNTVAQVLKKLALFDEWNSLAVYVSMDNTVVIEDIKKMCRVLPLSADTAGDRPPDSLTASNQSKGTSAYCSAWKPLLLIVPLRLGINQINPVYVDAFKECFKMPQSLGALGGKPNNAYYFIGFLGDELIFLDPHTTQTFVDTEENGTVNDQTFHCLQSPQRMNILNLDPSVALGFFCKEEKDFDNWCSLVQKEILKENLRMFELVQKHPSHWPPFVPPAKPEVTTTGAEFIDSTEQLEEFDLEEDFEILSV
UniProt Q9Y5K8, whole entry, looked up: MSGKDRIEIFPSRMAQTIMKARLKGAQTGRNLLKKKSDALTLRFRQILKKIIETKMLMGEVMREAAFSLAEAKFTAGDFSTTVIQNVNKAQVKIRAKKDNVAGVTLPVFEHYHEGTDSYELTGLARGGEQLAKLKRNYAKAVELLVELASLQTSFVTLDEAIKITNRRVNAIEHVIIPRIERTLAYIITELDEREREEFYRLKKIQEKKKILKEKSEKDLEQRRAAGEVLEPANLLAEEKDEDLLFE
UniProt Q9NVI7: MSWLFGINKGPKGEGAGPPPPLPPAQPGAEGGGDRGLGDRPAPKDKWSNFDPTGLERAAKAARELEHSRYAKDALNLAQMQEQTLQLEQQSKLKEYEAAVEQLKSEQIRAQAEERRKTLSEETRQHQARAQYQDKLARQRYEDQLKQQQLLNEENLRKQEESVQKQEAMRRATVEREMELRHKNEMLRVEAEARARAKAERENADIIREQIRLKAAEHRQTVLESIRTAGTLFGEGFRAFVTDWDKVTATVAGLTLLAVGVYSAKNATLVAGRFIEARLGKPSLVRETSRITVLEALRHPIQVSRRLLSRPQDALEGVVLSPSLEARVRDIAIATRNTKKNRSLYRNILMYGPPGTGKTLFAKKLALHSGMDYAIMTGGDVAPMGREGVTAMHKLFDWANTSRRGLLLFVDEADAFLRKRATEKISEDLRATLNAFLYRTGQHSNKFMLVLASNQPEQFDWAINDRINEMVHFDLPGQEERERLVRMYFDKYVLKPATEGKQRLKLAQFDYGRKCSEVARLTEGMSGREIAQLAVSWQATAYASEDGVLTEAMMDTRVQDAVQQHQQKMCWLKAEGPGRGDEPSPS
UniProt P17544: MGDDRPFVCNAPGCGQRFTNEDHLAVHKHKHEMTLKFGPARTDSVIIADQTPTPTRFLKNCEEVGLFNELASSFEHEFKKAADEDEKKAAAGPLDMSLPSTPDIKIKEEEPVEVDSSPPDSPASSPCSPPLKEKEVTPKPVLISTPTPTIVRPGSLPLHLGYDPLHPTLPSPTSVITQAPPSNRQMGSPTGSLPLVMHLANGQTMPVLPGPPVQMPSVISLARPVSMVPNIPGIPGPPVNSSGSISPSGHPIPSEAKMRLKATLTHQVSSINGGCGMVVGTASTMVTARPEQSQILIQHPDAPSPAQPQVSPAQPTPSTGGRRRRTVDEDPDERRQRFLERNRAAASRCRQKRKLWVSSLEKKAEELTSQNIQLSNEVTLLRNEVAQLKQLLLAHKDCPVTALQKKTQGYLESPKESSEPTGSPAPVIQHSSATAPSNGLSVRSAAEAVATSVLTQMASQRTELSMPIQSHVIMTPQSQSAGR
UniProt Q99700, whole entry, looked up: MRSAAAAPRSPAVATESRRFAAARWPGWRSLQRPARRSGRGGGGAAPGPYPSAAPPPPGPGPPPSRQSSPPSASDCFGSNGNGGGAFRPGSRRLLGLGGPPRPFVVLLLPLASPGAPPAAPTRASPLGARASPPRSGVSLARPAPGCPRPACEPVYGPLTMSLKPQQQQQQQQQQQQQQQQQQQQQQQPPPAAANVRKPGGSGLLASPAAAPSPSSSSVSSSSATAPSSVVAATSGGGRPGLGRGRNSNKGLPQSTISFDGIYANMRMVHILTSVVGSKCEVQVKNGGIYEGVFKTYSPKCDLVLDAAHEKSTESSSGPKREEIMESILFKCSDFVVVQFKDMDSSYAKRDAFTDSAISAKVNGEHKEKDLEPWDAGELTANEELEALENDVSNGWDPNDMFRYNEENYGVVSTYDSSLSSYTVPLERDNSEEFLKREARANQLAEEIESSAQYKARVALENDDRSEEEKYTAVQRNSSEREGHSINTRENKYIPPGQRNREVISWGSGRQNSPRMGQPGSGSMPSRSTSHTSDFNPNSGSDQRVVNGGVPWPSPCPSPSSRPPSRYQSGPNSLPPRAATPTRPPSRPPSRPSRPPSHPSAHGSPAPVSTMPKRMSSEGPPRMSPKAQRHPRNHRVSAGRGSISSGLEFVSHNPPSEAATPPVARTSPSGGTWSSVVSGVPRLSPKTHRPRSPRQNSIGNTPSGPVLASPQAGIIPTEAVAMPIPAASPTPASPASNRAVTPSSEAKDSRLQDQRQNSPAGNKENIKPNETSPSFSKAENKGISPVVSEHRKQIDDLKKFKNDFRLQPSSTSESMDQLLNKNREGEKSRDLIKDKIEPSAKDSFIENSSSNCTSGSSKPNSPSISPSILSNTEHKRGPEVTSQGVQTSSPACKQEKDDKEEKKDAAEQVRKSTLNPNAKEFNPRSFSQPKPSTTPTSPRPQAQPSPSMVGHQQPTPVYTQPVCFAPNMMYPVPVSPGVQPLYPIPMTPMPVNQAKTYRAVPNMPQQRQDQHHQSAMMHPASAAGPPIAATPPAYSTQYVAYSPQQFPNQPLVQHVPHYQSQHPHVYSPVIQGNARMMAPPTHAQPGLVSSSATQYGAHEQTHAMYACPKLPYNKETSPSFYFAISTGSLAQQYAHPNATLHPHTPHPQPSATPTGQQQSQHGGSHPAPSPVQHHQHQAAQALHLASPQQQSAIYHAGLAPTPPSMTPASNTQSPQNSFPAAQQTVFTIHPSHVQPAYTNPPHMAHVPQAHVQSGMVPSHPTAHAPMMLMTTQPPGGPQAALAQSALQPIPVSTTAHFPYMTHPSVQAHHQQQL
UniProt Q9Y2G3: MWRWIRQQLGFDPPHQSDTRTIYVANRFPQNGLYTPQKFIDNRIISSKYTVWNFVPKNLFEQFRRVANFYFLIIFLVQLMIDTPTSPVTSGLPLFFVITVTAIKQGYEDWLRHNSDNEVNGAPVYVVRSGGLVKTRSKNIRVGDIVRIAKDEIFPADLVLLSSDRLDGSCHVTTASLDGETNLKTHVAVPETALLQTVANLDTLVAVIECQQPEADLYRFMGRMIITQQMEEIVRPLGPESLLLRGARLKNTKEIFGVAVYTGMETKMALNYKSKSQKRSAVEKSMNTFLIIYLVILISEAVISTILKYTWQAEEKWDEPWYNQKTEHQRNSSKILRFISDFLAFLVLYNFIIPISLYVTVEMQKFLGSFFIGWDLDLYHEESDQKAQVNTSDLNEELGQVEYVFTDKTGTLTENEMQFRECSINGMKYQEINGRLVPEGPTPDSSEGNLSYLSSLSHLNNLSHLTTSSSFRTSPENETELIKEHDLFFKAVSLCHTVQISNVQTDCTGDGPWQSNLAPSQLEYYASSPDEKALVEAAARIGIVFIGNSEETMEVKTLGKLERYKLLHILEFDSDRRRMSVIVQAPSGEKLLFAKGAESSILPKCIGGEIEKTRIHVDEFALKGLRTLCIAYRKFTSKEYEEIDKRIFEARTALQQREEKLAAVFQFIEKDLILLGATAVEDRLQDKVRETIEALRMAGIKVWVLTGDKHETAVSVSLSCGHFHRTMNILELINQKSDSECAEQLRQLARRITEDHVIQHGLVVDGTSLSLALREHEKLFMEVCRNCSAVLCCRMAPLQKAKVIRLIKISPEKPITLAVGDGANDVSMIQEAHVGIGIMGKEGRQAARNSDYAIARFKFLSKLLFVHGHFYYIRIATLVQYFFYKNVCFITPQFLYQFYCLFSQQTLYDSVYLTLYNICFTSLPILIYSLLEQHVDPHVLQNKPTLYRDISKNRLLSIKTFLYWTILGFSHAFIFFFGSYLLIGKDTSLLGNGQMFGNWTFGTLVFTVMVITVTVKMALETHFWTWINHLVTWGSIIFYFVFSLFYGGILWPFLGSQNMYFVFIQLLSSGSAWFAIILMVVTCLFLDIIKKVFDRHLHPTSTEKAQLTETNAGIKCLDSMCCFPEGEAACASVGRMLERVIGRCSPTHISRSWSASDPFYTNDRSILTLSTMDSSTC

Assays:
Experiment in all cases: log2 fold change, soluble protein after heating vs DMSO (PISA); higher = thermal stabilisation; K562 lysate, 10 uM; active = over 0.2 and 3.5 SD of the protein, either way, in both replicates (recomputed)
[1] = compound: C#Cc1cccc(Nc2ncnc3cc(OCCOC)c(OCCOC)cc23)c1 [erlotinib]
Procedure, shortened: (§1)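 To prepare the extract, K562 pellets were dounce-homogenised in PBS pH 7.4 with 1 mM MgCl2, giving crude material at 1 mg/mL protein. This was treated with 10 μM compound for 30 min, then heated in aliquots for 3 min over 48°C-58°C before pooling and addition of NP-40 to 0.5% at 4°C. Centrifugation at 21,000xg for 90 min left soluble protein in the supernatant, which TMTpro 16plex LC-MS/MS quantified with equalised channel sums. Results are log-two fold changes in thermal stability compared with solvent controls, from duplicates.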

[2] = compound: C/C(=N\NC(=O)C1=CC(=CC=C1)S(=O)(=O)N2CCOCC2)/C3=C(C=CC(=C3)Cl)O
Procedure, shortened: as §1

[3] = compound: C1=CC(=CC=C1C2=NC3=C(N2)C=C(C=C3)C(=O)N)OC4=CC=C(C=C4)Cl
Procedure, shortened: as §1

[4] = compound: C1=CC2=C(C=CC(=C2)/C=C\3/C(=O)NC(=NCC4=CC=CS4)S3)N=C1
Procedure, shortened: as §1

[5] = compound: C1=CC2=NC=CN=C2C=C1/C=C/3\C(=O)NC(=O)S3
Procedure, shortened: as §1

[6] = compound: C1=CC=C(C=C1)C2=NC(=C(N2)C3=CC=NC=C3)C4=CC(=C(C=C4)Cl)O
Procedure, shortened: as §1

[7] = compound: C1=CC=C2C(=C1)C3=NNC4=CC=CC(=C43)C2=O
Procedure, shortened: as §1

[8] = compound: C1CCN(C1)C(=O)NC2=CC=CC(=C2)NC3=NC=C(C(=N3)NCCC4=CN=CN4)Br
Procedure, shortened: as §1

[9] = compound: C1CN(CCC1(CC2=CC=C(C=C2)Cl)N)C3=NC=NC4=C3C=CN4
Procedure, shortened: as §1

[10] = compound: C1COCCN1CCN2C3=CC=CC=C3N=C2NC(=O)C4=CC(=CC=C4)[N+](=O)[O-] [IRAK-1-4 Inhibitor I]
Procedure, shortened: as §1

[11] = compound: C=CC(=O)N1CCC[C@@H](n2nc(-c3ccc(Oc4ccccc4)cc3)c3c(N)ncnc32)C1 [ibrutinib]
Procedure, shortened: as §1

[12] = compound: CC(=O)c1cnc2ccc(-c3cc(Cl)c(O)c(Cl)c3)nc2c1N[C@H]1CC[C@H](CN(C)C)CC1
Procedure, shortened: as §1

[13] = compound: CC(C)(C)Cn1c(N)nc2ccc(-c3[nH]c(C(C)(C)C)nc3-c3ccc(F)cc3)nc21 [ralimetinib]
Procedure, shortened: as §1

[14] = compound: CC(C)(O)CC(=O)NCCn1ccc2ncnc(Nc3ccc(Oc4cccc(C(F)(F)F)c4)c(Cl)c3)c21
Procedure, shortened: as §1

[15] = compound: CC(C)C1=C2N=C(C=C(N2N=C1)NCC3=CC=CC=C3)NCCCCCCN
Procedure, shortened: as §1

[16] = compound: CC1=C(C(CC(=O)N1)C2=CC=C(C=C2)C(F)(F)F)C(=O)NC3=C(C=C4C(=C3)C=NN4)F
Procedure, shortened: as §1

[17] = compound: CC1=C(C2=C(C=C1)C(=O)C3=CC=CC=C3N2CCCN)C
Procedure, shortened: as §1

[18] = compound: CC1=C(C=C(C=C1)NC(=O)C2=CC(=CC=C2)C(C)(C)C#N)NC3=CC4=C(C=C3)N=CN(C4=O)C
Procedure, shortened: as §1

[19] = compound: CC1=C(C=C(C=C1)NC(=O)C2=CC(=CC=C2)N(C)C)NC(=O)C3=CC=C(C=C3)O
Procedure, shortened: as §1

[20] = compound: CC1=CC=C(C=C1)SC2=C3C=C(SC3=CN=C2)C(=O)N
Procedure, shortened: as §1

| Target | log2 fold change [1] | log2 fold change [2] | log2 fold change [3] | log2 fold change [4] | log2 fold change [5] | log2 fold change [6] | log2 fold change [7] | log2 fold change [8] | log2 fold change [9] | log2 fold change [10] | log2 fold change [11] | log2 fold change [12] | log2 fold change [13] | log2 fold change [14] | log2 fold change [15] | log2 fold change [16] | log2 fold change [17] | log2 fold change [18] | log2 fold change [19] | log2 fold change [20] |
| --- | --- | --- | --- | --- | --- | --- | --- | --- | --- | --- | --- | --- | --- | --- | --- | --- | --- | --- | --- | --- |
| ATG2B (UniProt Q96BY7) | inactive: -0.001 | inactive: 0.048 | inactive: -0.042 | inactive: -0.022 | inactive: 0.01 | inactive: -0.013 | inactive: -0.002 | inactive: 0.007 | inactive: 0.017 | inactive: 0.017 | inactive: 0.003 | inactive: 0.013 | inactive: 0.036 | inactive: -0.057 | inactive: -0.016 | inactive: 0.006 | inactive: 0.017 | inactive: 0.016 | inactive: 0 | inactive: -0.024 |
| ATG101 (UniProt Q9BSB4) | inactive: -0.031 | inactive: 0.009 | inactive: 0.01 | inactive: 0.026 | inactive: 0 | inactive: 0.024 | inactive: 0.006 | inactive: 0.037 | inactive: -0.018 | inactive: -0.024 | inactive: 0.026 | inactive: 0 | inactive: 0.036 | inactive: -0.019 | inactive: 0.012 | inactive: 0.048 | inactive: -0.006 | inactive: -0.02 | inactive: 0.028 | inactive: 0.025 |
| ATG4A (UniProt Q8WYN0) | inactive: 0.031 | inactive: -0.087 | inactive: -0.055 | inactive: -0.01 | inactive: 0.007 | inactive: 0.01 | inactive: -0.023 | inactive: -0.015 | inactive: 0.038 | inactive: -0.001 | inactive: 0.032 | inactive: -0.006 | inactive: 0.011 | inactive: -0.051 | inactive: -0.055 | inactive: -0.006 | inactive: -0.004 | inactive: 0.053 | inactive: 0.021 | inactive: -0.014 |
| ASNA1 (UniProt O43681) | inactive: 0.033 | inactive: -0.019 | inactive: -0.031 | inactive: 0.005 | inactive: 0.017 | inactive: -0.029 | inactive: -0.001 | inactive: 0.021 | inactive: 0.009 | inactive: -0.018 | inactive: 0.009 | inactive: 0.019 | inactive: -0.01 | inactive: 0.018 | inactive: -0.024 | inactive: -0.007 | inactive: 0.028 | inactive: 0.01 | inactive: -0.033 | inactive: 0.015 |
| AURKAIP1 (UniProt Q9NWT8) | inactive: -0.062 | inactive: -0.093 | inactive: 0.046 | inactive: -0.031 | inactive: -0.019 | active: 0.432 | inactive: 0.025 | inactive: -0.032 | inactive: 0.064 | inactive: 0.095 | inactive: -0.055 | inactive: -0.095 | inactive: -0.363 | inactive: -0.222 | inactive: 0.021 | inactive: 0.029 | inactive: -0.012 | inactive: 0.135 | active: -0.417 | inactive: -0.013 |
| ATG13 isoform 2 (UniProt O75143) | inactive: 0.019 | inactive: -0.055 | inactive: -0.033 | inactive: 0.021 | inactive: -0.001 | inactive: -0.004 | inactive: 0.02 | inactive: -0.031 | inactive: 0.019 | inactive: 0.006 | inactive: 0.01 | inactive: 0.011 | inactive: -0.003 | inactive: -0.018 | inactive: 0.004 | inactive: 0 | inactive: -0.006 | inactive: 0.048 | inactive: -0.024 | inactive: 0.016 |
| ATP6V1D (UniProt Q9Y5K8) | inactive: -0.015 | inactive: 0.027 | inactive: 0.014 | inactive: -0.007 | inactive: -0.03 | inactive: -0.019 | inactive: 0.017 | inactive: 0.024 | inactive: -0.022 | inactive: -0.002 | inactive: 0.008 | inactive: 0.01 | inactive: 0.02 | inactive: -0.015 | inactive: 0.003 | inactive: 0.02 | inactive: -0.001 | inactive: -0.031 | inactive: 0.03 | inactive: -0.003 |
| ATAD3A (UniProt Q9NVI7) | inactive: -0.032 | inactive: 0.007 | inactive: -0.075 | inactive: 0.032 | inactive: -0.05 | inactive: 0 | inactive: 0.066 | inactive: 0.03 | inactive: 0.089 | inactive: 0.039 | inactive: -0.042 | inactive: 0.027 | inactive: 0.028 | inactive: -0.076 | inactive: 0.013 | inactive: 0.034 | inactive: 0.005 | inactive: -0.036 | inactive: -0.004 | inactive: 0.034 |
| ATR (UniProt Q13535) | inactive: -0.025 | inactive: -0.012 | inactive: -0.055 | inactive: 0.336 | inactive: 0.255 | inactive: 0.125 | inactive: 0.071 | inactive: -0.005 | inactive: 0.125 | inactive: -0.025 | inactive: 0.06 | inactive: 0.319 | inactive: 0 | inactive: -0.037 | inactive: 0.016 | inactive: -0.015 | inactive: -0.031 | inactive: 0.032 | inactive: 0.039 | inactive: -0.053 |
| ATF7 isoform 6 (UniProt P17544) | inactive: 0.003 | inactive: -0.146 | inactive: 0.035 | inactive: -0.074 | inactive: 0.066 | inactive: -0.057 | inactive: 0.115 | inactive: -0.007 | inactive: -0.086 | inactive: 0.045 | inactive: -0.065 | inactive: -0.06 | inactive: -0.056 | inactive: -0.023 | inactive: -0.042 | inactive: -0.058 | inactive: -0.144 | inactive: 0.06 | inactive: 0 | inactive: -0.015 |
| ATXN2 (UniProt Q99700) | inactive: 0.007 | inactive: -0.015 | inactive: 0.063 | inactive: -0.006 | inactive: -0.041 | inactive: -0.005 | inactive: -0.022 | inactive: 0.026 | inactive: 0.014 | inactive: 0.016 | inactive: -0.007 | inactive: -0.011 | inactive: -0.002 | inactive: 0 | inactive: 0.016 | inactive: 0.013 | inactive: -0.022 | inactive: -0.02 | inactive: 0.041 | inactive: -0.021 |
| ATG3 (UniProt Q9NT62) | inactive: -0.013 | inactive: -0.014 | inactive: 0.008 | inactive: 0.01 | inactive: -0.009 | inactive: 0.016 | inactive: 0.008 | inactive: -0.007 | inactive: -0.031 | inactive: -0.027 | inactive: 0.003 | inactive: 0.01 | inactive: 0.024 | inactive: 0.006 | inactive: -0.013 | inactive: 0.005 | inactive: 0.034 | inactive: 0.01 | inactive: 0.01 | inactive: -0.014 |
| ATP11B (UniProt Q9Y2G3) | inactive: -0.003 | inactive: -0.039 | inactive: -0.028 | inactive: -0.023 | inactive: 0.004 | inactive: -0.012 | inactive: -0.036 | inactive: 0.006 | inactive: -0.006 | inactive: 0.01 | inactive: -0.007 | inactive: 0.007 | inactive: 0.041 | inactive: -0.007 | inactive: -0.022 | inactive: -0.007 | inactive: -0.004 | inactive: -0.008 | inactive: 0.015 | inactive: -0.011 |
| B3GLCT (UniProt Q6Y288) | inactive: 0.043 | inactive: -0.07 | inactive: -0.021 | inactive: 0.03 | inactive: -0.078 | inactive: 0.006 | inactive: -0.029 | inactive: -0.048 | inactive: 0.005 | inactive: 0.048 | inactive: 0.04 | inactive: 0.03 | inactive: -0.024 | inactive: -0.013 | inactive: 0.013 | inactive: -0.038 | inactive: -0.019 | inactive: 0.02 | inactive: 0.089 | inactive: 0.007 |
| ATP6V0A2 (UniProt Q9Y487) | inactive: 0.026 | inactive: 0.027 | inactive: 0.044 | inactive: -0.006 | inactive: 0.035 | inactive: 0.004 | inactive: -0.024 | inactive: -0.012 | inactive: 0 | inactive: 0.042 | inactive: 0.016 | inactive: -0.017 | inactive: 0 | inactive: -0.073 | inactive: -0.077 | inactive: 0.007 | inactive: -0.014 | inactive: 0.041 | inactive: -0.032 | inactive: 0.012 |
| ATG4B (UniProt Q9Y4P1) | inactive: 0.012 | inactive: 0.002 | inactive: -0.022 | inactive: -0.024 | inactive: 0.028 | inactive: -0.019 | inactive: -0.007 | inactive: 0.008 | inactive: -0.004 | inactive: 0.019 | inactive: 0.037 | inactive: 0.021 | inactive: 0.016 | inactive: -0.028 | inactive: -0.019 | inactive: -0.014 | inactive: 0.033 | inactive: 0.005 | inactive: 0.046 | inactive: 0.013 |

Pulled one by one from above:

| Target | log2 fold change [1] | log2 fold change [2] | log2 fold change [3] | log2 fold change [4] | log2 fold change [5] | log2 fold change [6] | log2 fold change [7] | log2 fold change [8] | log2 fold change [9] | log2 fold change [10] | log2 fold change [11] | log2 fold change [12] | log2 fold change [13] | log2 fold change [14] | log2 fold change [15] | log2 fold change [16] | log2 fold change [17] | log2 fold change [18] | log2 fold change [19] | log2 fold change [20] |
| --- | --- | --- | --- | --- | --- | --- | --- | --- | --- | --- | --- | --- | --- | --- | --- | --- | --- | --- | --- | --- |
| ATG4B (UniProt Q9Y4P1) | inactive: 0.012 | inactive: 0.002 | inactive: -0.022 | inactive: -0.024 | inactive: 0.028 | inactive: -0.019 | inactive: -0.007 | inactive: 0.008 | inactive: -0.004 | inactive: 0.019 | inactive: 0.037 | inactive: 0.021 | inactive: 0.016 | inactive: -0.028 | inactive: -0.019 | inactive: -0.014 | inactive: 0.033 | inactive: 0.005 | inactive: 0.046 | inactive: 0.013 |
| ATG101 (UniProt Q9BSB4) | inactive: -0.031 | inactive: 0.009 | inactive: 0.01 | inactive: 0.026 | inactive: 0 | inactive: 0.024 | inactive: 0.006 | inactive: 0.037 | inactive: -0.018 | inactive: -0.024 | inactive: 0.026 | inactive: 0 | inactive: 0.036 | inactive: -0.019 | inactive: 0.012 | inactive: 0.048 | inactive: -0.006 | inactive: -0.02 | inactive: 0.028 | inactive: 0.025 |
